Results taken from patent US20240148895A1 (Eisai R&D Management Co., Ltd., priority 2022, published 2024).

Assay: Fmoc solid-phase peptide synthesis; 2-chlorotrityl chloride resin; HATU
Conditions: whole synthesis, scale 50 mmol, formate

**Q.** For “(10S,17S,20S)-10-((((9H-Fluoren-9-yl)methoxy)carbonyl)amino)-17-isopropyl-2,2-dimethyl-4,11,15,18-tetraoxo-20-(3-ureidopropyl)-3-oxa-5,12,16,19-tetraazahenicosan-21-oic acid”, which crude mass is on record?
**A.** The crude mass was 36.0 g.
